From PubChem BioAssay (NCATS)
“And” between values parts separate entries of the source, which are not always exact repeats. Equal entries are not always repeated. The list shows a part of the results. Shown are side measurements of this screen, not its main read-out; they come without a call. Most of these compounds were active or inconclusive in the main read-out, so they are no random draw. The note in brackets gives the kind of curve behind each potency; many fits are weak.

Sequences of proteins named here, by UniProt entry; tags and fusion partners are left off. A change or cut given only in a name is not applied to a line headed by its entry.
UniProt P11086: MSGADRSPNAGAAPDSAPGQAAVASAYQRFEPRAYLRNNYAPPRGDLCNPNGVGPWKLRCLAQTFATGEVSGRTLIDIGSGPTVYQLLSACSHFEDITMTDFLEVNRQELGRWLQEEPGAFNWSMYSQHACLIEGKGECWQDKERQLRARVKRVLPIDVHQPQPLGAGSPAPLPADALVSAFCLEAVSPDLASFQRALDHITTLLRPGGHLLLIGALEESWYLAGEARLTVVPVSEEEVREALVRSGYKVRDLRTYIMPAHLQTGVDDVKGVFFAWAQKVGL

Key:
[1] = Validation of Assay for Modulators of Lamin A Splicing (AID 1459); conditions: Lamin A splicing dual RFP/GFP fluorescence reporter, ratio
How it was run: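 Readout: ratio of GFP (500-530 nm) to RFP (575-640 nm) total object intensity by 488 nm laser-scanning cytometry after 48 hrs. Cells were HeLa S3 clones carrying lamin A-EGFP minigene plus DsRed2 viability reporter; vehicle 0.5% DMSO final.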

[2] = qHTS Assay for Lipid Storage Modulators (AID 1519); conditions: Drosophila S3 cells, BODIPY lipid droplet/cell ratio, laser cytometry, cells loaded with oleic acid
How it was run: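 Cells seeded at 5,000 per well were treated with compounds over a concentration series and loaded with oleic acid (400 uM, as added). Lipid droplet fluorescence (488 nm excitation, 500-530 nm channel) was read by laser-scanning cytometry and normalized to 20 uM Triacsin C.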

[3] = qHTS Assay for Modulators of Human Peripheral Myelin Protein 22 (PMP22) Expression/Activity (AID 1967); conditions: Cell-based PMP22 reporter, dual-color luciferase ratio
How it was run: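 Mouse MSC80 Schwann line, Pmp22 promoter–CBG68 reporter, EF-alpha–CBR internal control. 24h compound exposure, 37 °C/5% CO2, DMEM + 10% FBS. Readout: corrected green/red luminescence ratio, normalized to untreated cells; concentration-response curves fitted and classified.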

[4] = qHTS Validation Assay to Find Inhibitors of Chronic Active B-Cell Receptor Signaling (AID 485345); conditions: ABC-DLBCL cells, chronic BCR signaling reporter
How it was run: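 Read-out: ratio of filter-corrected green (IkappaBalpha fusion) to red (native) luciferase signal in doxycycline-induced TMD8 cells after 4 h at 37C. Titration spanned 46 uM–3 nM; Data were normalised to basal cells and 10 uM MG-132 wells.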

[5] = Nrf2 qHTS screen for inhibitors: Validation (AID 493153); conditions: A549 ARE-Fluc reporter, 18-24 h; AC50: CellTiter-Fluor fluorescence read, measured here: cytotoxicity CellTiter-Fluor AC50; viability change: measured here: cytotoxicity max response
How it was run: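 Concentration-response on A549 ARE_Fluc reporter cells exposed 18-24 h at 37 C, 5% CO2. Cytotoxicity read first by CellTiter-Fluor fluorescence (Ex 405/Em 525), then Nrf2 inhibition by BugLite luminescence after 15 min.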

[6] = qHTS for identification of novel therapeutic agents for treatment of microphthalmiaassociated transcription factor (MiT) renal cell carcinoma (RCC) (AID 1963991); conditions: CellTiter-Glo, 48 h; for z-score: stronger effect = lower value
How it was run: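 Viability of three TFE3-fusion renal carcinoma lines measured by CellTiter-Glo after 48 h treatment with each of 1912 compounds at 11 concentrations. Responses scaled between DMSO (100%) and empty wells (0%) before curve fitting.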

[7] = qHTS Assay for Inhibitors of PDE-IV (AID 607); conditions: HEK293 ACTOne CNG channel cells, membrane potential fluorescence; measured here: parental cell counter-screen
How it was run: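 Live HEK293 cells with a modified cyclic nucleotide-gated (CNG) channel report intracellular cAMP via membrane-potential dye fluorescence (ex 535/em 590 nm). Endogenous PDE-IV was targeted. Compounds were tested at up to 22.9 uM final; RO 20-1724 100 uM served as control.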

[8] = target: Phenylethanolamine N-methyltransferase (Homo sapiens) (UniProt P11086); test: Confirmatory Screen for Target Class Profiling of Small Molecule Inhibitors of Methyltransferases (AID 1745852); conditions: MTase-Glo luminescence, SAH detection, recombinant enzyme; measured here: PNMT inhibition potency
[9] = NCATS anti-infectives library activity on the primary C. elegans qHTS viability assay (AID 1745855); conditions: C. elegans worm area imaging, day 7, measured here: worm number
How it was run: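 GFP read-out by 488 nm laser cytometry at day 0, 3 and 7, gated on object perimeter, area and peak intensity, scored viability of PE254-GFP-FLuc worms exposed to compound in S medium with bacterial capsules at 21 °C.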

[10] = measured here: cell count channel max response
[11] = measured here: cell number channel AC50
[12] = measured here: lipid (BODIPY) channel AC50
[13] = measured here: lipid channel max response
[14] = measured here: green reporter channel AC50, mouse Pmp22 promoter in mouse Schwann cells
[15] = measured here: red reporter channel AC50, EF-alpha promoter control reporter in MSC80 mouse Schwann cells
[16] = measured here: CBG/CBR ratio read-out
[17] = measured here: CBR control luciferase (viability counter)
[18] = TFE3-RCC UOK109 viability, measured here: UOK109 Z-AUC
[19] = TFE3-RCC viability, measured here: UOK124 Z-AUC
[20] = TFE3-RCC viability, measured here: UOK124 cell viability
[21] = TFE3-RCC viability, measured here: UOK145 Z-AUC
[22] = TFE3-RCC viability, measured here: UOK145 cell viability

**Q.** Which AC50 ([1]; measured here: GFP channel) does the source give for `CN1C2CCC1CC(OC(=O)C(CO)c1ccccc1)C2` (stereo unspecified) here?
**A.** Its AC50 is 35.5 µM [falling, single point].

**Q.** And the AC50 ([1]; measured here: RFP channel)?
**A.** The AC50 was 35.5 µM [falling, single point].

**Q.** With `CC[C@H]1CN2CCc3cc(OC)c(OC)cc3[C@@H]2C[C@@H]1C[C@H]1NCCc2cc(OC)c(OC)cc21` as the compound, how does the AC50 ([1]; measured here: GFP channel) read?
**A.** Its AC50 is 0.562 µM [falling, full curve].

**Q.** What about the AC50 ([1]; measured here: RFP channel) of the same compound?
**A.** The AC50 was 0.794 µM [falling, full curve].

**Q.** What about the max response [2, 10] of the same compound?
**A.** The max response was 39.8%.

**Q.** What about the AC50 [2, 11] of the same compound?
**A.** The AC50 was 44.7 µM [rising, single point].

**Q.** What about the AC50 [2, 12] of the same compound?
**A.** The AC50 was 44.7 µM [rising, single point].

**Q.** And the max response [2, 13]?
**A.** Its max response is 34.5%.

**Q.** And the AC50 [3, 14]?
**A.** Its AC50 is 0.0675 µM [falling, full curve].

**Q.** What about the AC50 [3, 15] of the same compound?
**A.** Its AC50 is 0.0757 µM [falling, full curve].

**Q.** Which AC50 ([1]; measured here: GFP channel) does the source give for `c1ccc2c(c1)[I+]c1ccccc1-2` here?
**A.** The AC50 was 5.62 µM [falling, partial curve].

**Q.** What about the AC50 ([1]; measured here: RFP channel) of the same compound?
**A.** The AC50 was 7.08 µM [falling, full curve].

**Q.** And the max response [2, 10]?
**A.** Its max response is 50.4% and -46%.

**Q.** And the AC50 [2, 11]?
**A.** The AC50 was 70.8 nM [rising, full curve, poor fit] and 708 nM [falling, full curve].

**Q.** What about the max response [2, 13] of the same compound?
**A.** The max response was -92.5% and -111%.

**Q.** And the AC50 [3, 14]?
**A.** The AC50 was 0.849 µM [falling, full curve].

**Q.** And the AC50 [3, 15]?
**A.** Its AC50 is 0.213 µM [falling, full curve].

**Q.** And the AC50 [4, 16]?
**A.** Its AC50 is 2.59 µM [falling, full curve].

**Q.** And the AC50 [4, 17]?
**A.** Its AC50 is 2.06 µM [falling, full curve].

**Q.** What about the AC50 [5] of the same compound?
**A.** The AC50 was 7.31 µM [falling, partial curve].

**Q.** And the viability change [5]?
**A.** Its viability change is -54.4%.

**Q.** Which results are given for `C=CCN1CC[C@]23c4c5ccc(O)c4O[C@@H]2/C(=N/N=C2\CC[C@@]4(O)C6Cc7ccc(O)c8c7[C@@]4(CCN6CC=C)[C@@H]2O8)CC[C@@]3(O)C1C5`?
**A.** AC50 ([1]; measured here: GFP channel): 35.5 µM [falling, single point]; AC50 ([1]; measured here: RFP channel): 28.2 µM [falling, single point]; max response [2, 10]: 71.9%; AC50 [2, 11]: 44.7 µM [rising, single point]; AC50 [2, 12]: 44.7 µM [rising, single point]; max response [2, 13]: 74.9%; AC50 [3, 14]: 33.8 µM [falling, full curve]; AC50 [3, 15]: 42.6 µM [falling, full curve]

**Q.** Which results are given for `Cc1c(C(=O)c2cccc3ccccc23)c2cccc3c2n1[C@H](CN1CCOCC1)CO3`?
**A.** AC50 ([1]; measured here: GFP channel): 22.4 µM [falling, single point]; AC50 ([1]; measured here: RFP channel): 22.4 µM [falling, single point]; max response [2, 10]: 53.6%; max response [2, 13]: 57%; AC50 [3, 14]: 26.9 µM [falling, full curve]; AC50 [3, 15]: 19 µM [falling, full curve]; AC50 [4, 16]: 20.6 µM [falling, single point]; AC50 [4, 17]: 25.9 µM [falling, single point]; z-score [6, 18]: -0.0766; z-score [6, 19]: -0.0302; AC50 [6, 20]: 20.9 µM [falling, partial curve]; z-score [6, 21]: -0.273; AC50 [6, 22]: 26.4 µM [falling, single point]

**Q.** With `c1ccc(CCCN2CCN(CCOC(c3ccccc3)c3ccccc3)CC2)cc1` as the compound, how does the AC50 [7] read?
**A.** Its AC50 is 15.8 µM [rising, partial curve, poor fit].

**Q.** What about the AC50 ([1]; measured here: GFP channel) of the same compound?
**A.** The AC50 was 35.5 µM [falling, single point].

**Q.** What about the AC50 ([1]; measured here: RFP channel) of the same compound?
**A.** The AC50 was 25.1 µM [falling, single point].

**Q.** What about the max response [2, 10] of the same compound?
**A.** Its max response is 60.4% and -102%.

**Q.** What about the AC50 [2, 11] of the same compound?
**A.** Its AC50 is 14.1 µM [rising, partial curve, poor fit].

**Q.** What about the AC50 [2, 12] of the same compound?
**A.** The AC50 was 15.8 µM [rising, partial curve, poor fit].

**Q.** What about the max response [2, 13] of the same compound?
**A.** Its max response is 71.3% and -107%.

**Q.** What about the AC50 [3, 14] of the same compound?
**A.** Its AC50 is 42.6 µM [falling, full curve].

**Q.** What about the AC50 [3, 15] of the same compound?
**A.** The AC50 was 37.9 µM [falling, full curve].

**Q.** What about the z-score [6, 18] of the same compound?
**A.** The z-score was 0.0714.

**Q.** What about the z-score [6, 19] of the same compound?
**A.** Its z-score is -0.248.

**Q.** And the AC50 [6, 20]?
**A.** Its AC50 is 20.9 µM [falling, partial curve].

**Q.** What about the z-score [6, 21] of the same compound?
**A.** Its z-score is -0.0424.

**Q.** What about the AC50 [6, 22] of the same compound?
**A.** Its AC50 is 20.9 µM [falling, partial curve, poor fit].

**Q.** For `CC(C)(C)c1cc(C=C(C#N)C#N)cc(C(C)(C)C)c1O`, which AC50 [7] is on record?
**A.** The AC50 was 3.16 µM [rising, partial curve].

**Q.** What about the AC50 ([1]; measured here: RFP channel) of the same compound?
**A.** The AC50 was 35.5 µM [falling, single point].

**Q.** And the max response [2, 10]?
**A.** Its max response is -60.7%.

**Q.** What about the max response [2, 13] of the same compound?
**A.** The max response was -96.6%.

**Q.** And the AC50 [3, 14]?
**A.** The AC50 was 4.78 µM [falling, full curve].

**Q.** And the AC50 [3, 15]?
**A.** The AC50 was 2.69 µM [falling, full curve].

**Q.** What about the AC50 [4, 16] of the same compound?
**A.** Its AC50 is 16.4 µM [falling, partial curve].

**Q.** What about the AC50 [4, 17] of the same compound?
**A.** The AC50 was 6.51 µM [falling, partial curve].

**Q.** And the AC50 [5]?
**A.** Its AC50 is 1.84 µM [falling, full curve].

**Q.** What about the viability change [5] of the same compound?
**A.** The viability change was -64.1%.

**Q.** And the IC50 [8]?
**A.** Its IC50 is 21.7 µM [falling, partial curve, poor fit].

**Q.** What about the AC50 [9] of the same compound?
**A.** The AC50 was 0.103 µM [falling, full curve, poor fit].

**Q.** With `COc1cc(OC)c(/C=C2/C(=O)Nc3ccccc32)c(OC)c1` as the compound, how does the AC50 ([1]; measured here: GFP channel) read?
**A.** Its AC50 is 22.4 µM [falling, single point].

**Q.** And the AC50 ([1]; measured here: RFP channel)?
**A.** The AC50 was 22.4 µM [falling, single point].

**Q.** What about the AC50 [3, 15] of the same compound?
**A.** Its AC50 is 15.1 µM [falling, full curve, poor fit].
